Source: US20230047208A1, “RNA Splicing Modulation” (The General Hospital Corporation, priority 2020, published 2023)
The source gives many values for each of these; only a part stands here.

Test system: wildtype (WT) human fibroblast cell lines
Assay: Transcriptome-wide splicing by RNA sequencing (RNASeq), exon triplet PSI change;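 as to Effect: six WT fibroblast lines treated seven days versus DMSO vehicle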;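 as to T-PSI: T-PSI is average treated PSI after seven days of treatment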
Format: cell-based
Parameters: key to Effect: Exclusion; Inclusion; Unchanged
Text: FIG. 2A provides a representation of an exon triplet. Exon U is upstream of Exon X, which is upstream of Exon D. R1, R2 and R3 represent RNA sequencing (RNASeq) reads spanning the regions between two adjacent exons. UI1, I1X, XI2 and I2D are four regions flanking the four splice sites of the exon-triplet. Each flanking region consists of 25 exonic base pairs and 75 intronic base pairs.
FIG. 2B provides a volcano plot showing the ψ (PSI: Percent Spliced-In) changes in splicing after treatment with Compound (I). Each dot represents one of the 161,097 expressed exon triplets in human fibroblasts. The x axis represents the ψ changes after treatment and the y axis represents the False Discovery Rate (FDR) (log 10 transformed). […] The horizontal dashed line indicates an FDR of 0.1. The dots on the right side of the right vertical dashed line and above the horizontal dashed line represent the exon-triplets with an increase for Exon X inclusion (Δψ≥0.1 and FDR<0.1) while the dots on left side of the left vertical dashed line and above the horizontal dashed line represent an increase for Exon X exclusion (Δψ≤−0.1 and FDR<0.1). Black dots in-between the two vertical dashed lines represent exon-triplets unchanged from the treatment.
In some aspects, analysis is performed on data derived from the assay to measure the magnitude of splicing to determine the amount of exons spliced into an mRNA transcript that is produced in the presence of Compound (I) relative to the amount in the absence of Compound (I) or presence of a negative control. In a preferred aspect, the method utilized is calculation of change in Percent Spliced In (ΔPSI). […] The ΔPSI value is derived from the formula: […]
The values for “a” and “b” represent the number of reads supporting the probability for potential inclusion or exclusion of an exon in an RNA transcript. The “a” value is derived from the number of reads within an exon triplet covering, in 5′ to 3′ order: the last few bases (>1 nucleotide) of an upstream exon operably linked to the first few bases (>1 nucleotide) of a middle exon. The “b” value is derived from the number of reads within an exon triplet covering, in 5′ to 3′ order: the last few bases (>1 nucleotide) of the middle exon operably linked to the first few bases (>1 nucleotide) of a downstream exon. The number of reads will indicate whether the splice junction of a middle exon has been identified as potentially having a CNN Motif(s) by the CNN Model described herein, wherein the inclusion or exclusion of the middle exon may be modulated in the presence of Compound (I) to produce one or more mature RNA isoforms from the gene transcript. The value for “c” represents the number of reads supporting the exclusion of the middle exon.
The effect on splicing modulation and corresponding splice differences toward exon inclusion or exclusion was determined by counting the RNASeq reads covering two splice junctions of exon triplets (three consecutive exons: Exon U, Exon X, Exon D) and the corresponding intervening introns, then comparing the change in Percent Spliced In (ΔPSI or Δψ) of the middle exon (Exon X) after treatment (as shown in FIG. 2A)^52,53. 934 exon triplets were identified showing differential middle exon inclusion or exclusion in response to Compound (I) treatment. Of these, 254 were exon inclusion events (Δψ≥0.1 and FDR<0.1) and 680 were exon exclusion events (Δψ≤−0.1 and FDR<0.1) (as shown in FIG. 2B). […] The splicing results were evaluated by RT-PCR in independent replicate experiments, confirming all the calculated Δψ values. […]

[1] = FAM114A1 Exon 38879692-38880047
[2] = FAM149B1 Exon 74994951-74995076
[3] = FAM160B2 Exon 21947272-21947365
[4] = FAM204A Exon 120101239-120101439
[5] = FAM211A-AS1 Exon 16342842-16343017
[6] = FAM211A-AS1 Exon 16342895-16343017
[7] = FAM211A-AS1 Exon 16342974-16343017
[8] = FBXW11 Exon 171341347-171341409
[9] = PHLDB1 Exon 118484009-118484165
[10] = PIKFYVE Exon 209138742-209138777

Question: What does the source list for Clc1nc(NCc2ccncc2)c2cc[nH]c2n1 [Compound (I), 2-chloro-N-(pyridin-4-ylmethyl)-7H-pyrrolo[2,3-d]pyrimidin-4-amine]?
Answer: Effect (FAM111A Exon 58910970-58913329): Exc; T-PSI (FAM111A Exon 58910970-58913329): 0.699; ΔPSI (FAM111A Exon 58910970-58913329): −0.201; Effect [1]: Unc; T-PSI [1]: 0.906; ΔPSI [1]: 0.008; Effect (FAM134C Exon 40739852-40739882): Exc; T-PSI (FAM134C Exon 40739852-40739882): 0.878; ΔPSI (FAM134C Exon 40739852-40739882): −0.101; Effect [2]: Exc; T-PSI [2]: 0.795; ΔPSI [2]: −0.133; Effect [3]: Unc; T-PSI [3]: 0.108; ΔPSI [3]: 0.007; Effect (FAM172A Exon 93386436-93386536): Exc; T-PSI (FAM172A Exon 93386436-93386536): 0.677; ΔPSI (FAM172A Exon 93386436-93386536): −0.147; Effect (FAM172A Exon 93410351-93410474): Inc; T-PSI (FAM172A Exon 93410351-93410474): 0.790; ΔPSI (FAM172A Exon 93410351-93410474): 0.146; Effect (FAM173A Exon 772084-772134): Unc; T-PSI (FAM173A Exon 772084-772134): 0.796; ΔPSI (FAM173A Exon 772084-772134): 0.002; Effect (FAM175A Exon 84391356-84391549): Unc; T-PSI (FAM175A Exon 84391356-84391549): 0.892; ΔPSI (FAM175A Exon 84391356-84391549): 0.005; Effect (FAM175A Exon 84405145-84405319): Unc; T-PSI (FAM175A Exon 84405145-84405319): 0.113; ΔPSI (FAM175A Exon 84405145-84405319): −0.005; Effect [4]: Exc; T-PSI [4]: 0.449; ΔPSI [4]: −0.134; Effect (FAM208B Exon 5777267-5777509): Unc; T-PSI (FAM208B Exon 5777267-5777509): 0.807; ΔPSI (FAM208B Exon 5777267-5777509): −0.009; Effect [5]: Exc; T-PSI [5]: 0.179; ΔPSI [5]: −0.149; Effect [6]: Exc; T-PSI [6]: 0.180; ΔPSI [6]: −0.133; Effect [7]: Exc; T-PSI [7]: 0.155; ΔPSI [7]: −0.124; Effect (FAP Exon 163054689-163054808): Exc; T-PSI (FAP Exon 163054689-163054808): 0.303; ΔPSI (FAP Exon 163054689-163054808): −0.258; Effect (FBXL3 Exon 77595792-77595996): Inc; T-PSI (FBXL3 Exon 77595792-77595996): 0.926; ΔPSI (FBXL3 Exon 77595792-77595996): 0.169; Effect (FBXL12 Exon 9923907-9923950): Exc; T-PSI (FBXL12 Exon 9923907-9923950): 0.025; ΔPSI (FBXL12 Exon 9923907-9923950): −0.145; Effect (FBXO25 Exon 382886-382935): Exc; T-PSI (FBXO25 Exon 382886-382935): 0.715; ΔPSI (FBXO25 Exon 382886-382935): −0.125; Effect [8]: Exc; T-PSI [8]: 0.318; ΔPSI [8]: −0.156; Effect (PFDN1 Exon 139680001-139680167): Exc; Effect (PFDN5 Exon 53690214-53690335): Unc; Effect (PFDN5 Exon 53690238-53690335): Unc; Effect (PFDN6 Exon 33258103-33258227): Exc; T-PSI (PFDN6 Exon 33258103-33258227): 0.847; ΔPSI (PFDN6 Exon 33258103-33258227): −0.117; Effect (PFKM Exon 48529074-48529166): Exc; T-PSI (PFKM Exon 48529074-48529166): 0.563; ΔPSI (PFKM Exon 48529074-48529166): −0.120; Effect (PHC3 Exon 169846128-169846175): Inc; T-PSI (PHC3 Exon 169846128-169846175): 0.373; ΔPSI (PHC3 Exon 169846128-169846175): 0.148; Effect (PHKG2 Exon 30767503-30767593): Exc; T-PSI (PHKG2 Exon 30767503-30767593): 0.799; ΔPSI (PHKG2 Exon 30767503-30767593): −0.177; Effect [9]: Inc; T-PSI [9]: 0.239; ΔPSI [9]: 0.143; Effect (PHLPP2 Exon 71718379-71718504): Unc; T-PSI (PHLPP2 Exon 71718379-71718504): 0.867; ΔPSI (PHLPP2 Exon 71718379-71718504): 0.001; Effect (PI4KB Exon 151282687-151282731): Exc; T-PSI (PI4KB Exon 151282687-151282731): 0.168; ΔPSI (PI4KB Exon 151282687-151282731): −0.129; Effect (PI4KB Exon 151298648-151298849): Exc; T-PSI (PI4KB Exon 151298648-151298849): 0.314; ΔPSI (PI4KB Exon 151298648-151298849): −0.195; Effect (PIGF Exon 46815214-46815318): Unc; T-PSI (PIGF Exon 46815214-46815318): 0.139; ΔPSI (PIGF Exon 46815214-46815318): −0.004; Effect (PIGG Exon 524225-524534): Exc; T-PSI (PIGG Exon 524225-524534): 0.784; ΔPSI (PIGG Exon 524225-524534): −0.162; Effect (PIGN Exon 59830764-59830889): Inc; T-PSI (PIGN Exon 59830764-59830889): 0.945; ΔPSI (PIGN Exon 59830764-59830889): 0.323; Effect (PIGP Exon 38444445-38444610): Unc; T-PSI (PIGP Exon 38444445-38444610): 0.163; ΔPSI (PIGP Exon 38444445-38444610): 0.001; Effect (PIGQ Exon 632248-632309): Unc; T-PSI (PIGQ Exon 632248-632309): 0.790; ΔPSI (PIGQ Exon 632248-632309): 0.005; Effect (PIGT Exon 44045157-44045294): Exc; T-PSI (PIGT Exon 44045157-44045294): 0.752; ΔPSI (PIGT Exon 44045157-44045294): −0.165; Effect (PIGT Exon 44045157-44045334): Exc; T-PSI (PIGT Exon 44045157-44045334): 0.751; ΔPSI (PIGT Exon 44045157-44045334): −0.167; Effect (PIK3C2A Exon 17169064-17169175): Exc; T-PSI (PIK3C2A Exon 17169064-17169175): 0.871; ΔPSI (PIK3C2A Exon 17169064-17169175): −0.111; Effect [10]: Exc; T-PSI [10]: 0.309; ΔPSI [10]: −0.190; Effect (PILRB Exon 99950833-99950893): Exc; T-PSI (PILRB Exon 99950833-99950893): 0.688
